Values from PubChem BioAssay AID686938 (Drosophila RNAi Screening Center, 2013).
In all, the deposit lists about 23,000 reagents; below is an unselected part of those with a known target gene and a result. In the full data, 75 (0.33%) were called active. 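Raw plate signals without normalisation; calls rest on plate z-scores that were not deposited; ratio present for only 364 wells.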 A plus sign joins genes that one reagent is predicted to hit. No sequences are given here. Not stated in the record: the dose of the treatment.

Purpose: 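Knock-downs reducing store-operated calcium influx in Drosophila cells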 (primary screen)
Cells: Drosophila S2R+ cells
Reagent: long dsRNA against Drosophila genes, about 0.25 µg dsRNA per well, roughly 10,000 cells
Duration: 5 days of knock-down before the calcium assay
Treatment: thapsigargin (SERCA pump blocker) to empty calcium stores; entry signal taken 4 min after adding it
Measurement: 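Duplicate raw fluo-4 intensities per well from a plate reader, at rest and four minutes after thapsigargin emptied calcium stores; entry-to-rest ratio filled for only some wells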
Reading the numbers: calcium entry signal: higher = stronger calcium signal after store depletion; resting calcium signal: higher = higher resting calcium signal
Hit rule: 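Called when the plate z-score of the entry-to-rest ratio, mean of duplicates, falls below −3; wells with low overall dye signal (Fmax z below −2) or more than five off-targets excluded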
Calls: active = strongly reduced calcium entry; inactive = no strong reduction

| gene knocked down | DRSC id | calcium entry signal, replicate 1 (fluorescence units) | calcium entry signal, replicate 2 (fluorescence units) | resting calcium signal, replicate 1 (fluorescence units) | resting calcium signal, replicate 2 (fluorescence units) | Call |
| --- | --- | --- | --- | --- | --- | --- |
| CG13949 | DRSC00367 | 2.73e7 | 3.63e7 | 1.39e7 | 1.88e7 | inactive |
| tweek | DRSC02433 | 3.66e7 | 2.29e7 | 1.65e7 | 1.18e7 | inactive |
| tweek | DRSC02434 | 3.96e7 | 2.18e7 | 1.82e7 | 1.05e7 | inactive |
| tweek | DRSC02785 | 4.32e7 | – | 2.28e7 | – | inactive |
| tweek | DRSC23133 | 2.84e7 | 2.81e7 | 1.40e7 | 1.41e7 | inactive |
| CG4701 | DRSC01952 | 3.01e7 | 2.23e7 | 1.39e7 | 1.10e7 | inactive |
| CR30374 (pseudo) | DRSC05080 | 3.13e7 | 6.33e7 | 1.67e7 | 2.45e7 | inactive |
| Hsc70-4 (Heat shock protein 70 cognate 4) | DRSC16711 | 1.86e7 | 1.86e7 | 7.13e7 | 1.08e7 | inactive |
| CrebA (Cyclic-AMP response element binding protein A) | DRSC11122 | 3.78e7 | 4.32e7 | 1.75e7 | 3.04e7 | inactive |
| eIF3b (eukaryotic translation initiation factor 3 subunit b) | DRSC06900 | 2.69e7 | 1.70e7 | 1.68e7 | 1.08e7 | inactive |
| SkpC (SKP1-related C) | DRSC20375 | 5.13e7 | 3.40e7 | 2.25e7 | 1.45e7 | inactive |
| Ugt49C1 (UDP-glycosyltransferase family 49 member C1) | DRSC04252 | 2.79e7 | 4.21e7 | 1.53e7 | 1.97e7 | inactive |
| bi (bifid) | DRSC18742 | 3.25e7 | 4.04e7 | 1.50e7 | 1.75e7 | inactive |
| Nph (Nucleophosmin) | DRSC16342 | 4.30e7 | 5.69e7 | 2.22e7 | 2.60e7 | inactive |

Reformatted: results already given
tweek [DRSC02433] — calcium entry signal, replicate 1 (fluorescence units) = 3.66e7; calcium entry signal, replicate 2 (fluorescence units) = 2.29e7; resting calcium signal, replicate 1 (fluorescence units) = 1.65e7; resting calcium signal, replicate 2 (fluorescence units) = 1.18e7; Call = inactive
tweek [DRSC02434] — calcium entry signal, replicate 1 (fluorescence units) = 3.96e7; calcium entry signal, replicate 2 (fluorescence units) = 2.18e7; resting calcium signal, replicate 1 (fluorescence units) = 1.82e7; resting calcium signal, replicate 2 (fluorescence units) = 1.05e7; Call = inactive
tweek [DRSC02785] — calcium entry signal, replicate 1 (fluorescence units) = 4.32e7; resting calcium signal, replicate 1 (fluorescence units) = 2.28e7; Call = inactive
tweek [DRSC23133] — calcium entry signal, replicate 1 (fluorescence units) = 2.84e7; calcium entry signal, replicate 2 (fluorescence units) = 2.81e7; resting calcium signal, replicate 1 (fluorescence units) = 1.40e7; resting calcium signal, replicate 2 (fluorescence units) = 1.41e7; Call = inactive

Next reagents follow:
| gene knocked down | DRSC id | calcium entry signal, replicate 1 (fluorescence units) | calcium entry signal, replicate 2 (fluorescence units) | resting calcium signal, replicate 1 (fluorescence units) | resting calcium signal, replicate 2 (fluorescence units) | Call |
| --- | --- | --- | --- | --- | --- | --- |
| Wdr37 (WD repeat domain 37) | DRSC14500 | 5.04e7 | 3.88e7 | 2.25e7 | 1.75e7 | inactive |
| CG14840 | DRSC14964 | 2.50e7 | 3.03e7 | 1.17e7 | 3.86e7 | inactive |
| Cyp310a1 (Cytochrome P450 310a1) | DRSC03301 | 5.39e7 | – | 2.67e7 | – | inactive |
| scpr-B (SCP-containing protein B) | DRSC15200 | 2.92e7 | 2.94e7 | 1.26e7 | 1.46e7 | inactive |
| CheB38a (Chemosensory protein B 38a) | DRSC03205 | 4.81e7 | 4.72e7 | 2.11e7 | 2.41e7 | inactive |
| Csgalnact (Chondroitin sulfate N-acetylgalactosaminyltransferase) | DRSC06228 | 3.03e7 | 3.52e7 | 1.55e7 | 1.54e7 | inactive |
| CG33758 | DRSC05158 | 2.63e7 | 3.43e7 | 1.26e7 | 1.72e7 | inactive |
| Cyp12a4 (Cytochrome P450 12a4) | DRSC16620 | 3.47e7 | 4.19e7 | 4.42e7 | 1.71e7 | inactive |
| Dsp1 (Dorsal switch protein 1) | DRSC20315 | 1.39e7 | 1.41e7 | 9.80e6 | 9.16e6 | inactive |
| Dsp1 (Dorsal switch protein 1) | DRSC23078 | 6.02e7 | 2.84e7 | 2.94e7 | 1.15e7 | inactive |
| Saysd1 (SAYSVFN motif domain containing 1) | DRSC14664 | 4.51e7 | 6.39e7 | 2.16e7 | 2.77e7 | inactive |
| eg (eagle) | DRSC11885 | 3.17e7 | 5.25e7 | 1.64e7 | 2.18e7 | inactive |
| orb (oo18 RNA-binding protein) | DRSC17021 | 2.22e7 | 2.16e7 | 1.39e7 | 1.26e7 | inactive |
| orb (oo18 RNA-binding protein) | DRSC23148 | 4.38e7 | 3.06e7 | 2.39e7 | 1.34e7 | inactive |
| CG14659 | DRSC12245 | 2.62e7 | 5.93e7 | 1.38e7 | 2.47e7 | inactive |
| CG17129 | DRSC08508 | 4.39e7 | 3.87e7 | 2.19e7 | 1.85e7 | inactive |
| CG11562 | DRSC00316 | 3.83e7 | 4.51e7 | 1.83e7 | 1.86e7 | inactive |
| mod(mdg4) + pre-mod(mdg4)-U | DRSC13476 | 3.99e7 | 2.83e7 | 1.99e7 | 1.46e7 | inactive |
| Vrp1 (Verprolin 1) | DRSC04148 | 1.18e7 | – | 9.47e6 | – | inactive |
| metro (menage a trois) | DRSC06341 | 2.44e7 | 2.51e7 | 1.11e7 | 1.26e7 | inactive |
| metro (menage a trois) | DRSC06725 | 1.65e7 | 3.09e7 | 8.84e6 | 1.35e7 | inactive |
| Dyrk2 (Dual-specificity tyrosine phosphorylation-regulated kinase 2) | DRSC03610 | 5.36e7 | – | 2.57e7 | – | inactive |
| Egm (Enigma) | DRSC07319 | 2.76e7 | 3.16e7 | 1.33e7 | 1.46e7 | inactive |
| Egm (Enigma) | DRSC22860 | 1.43e7 | 2.50e7 | 8.41e6 | 1.14e7 | inactive |
| CG31729 | DRSC02524 | 4.09e7 | – | 2.19e7 | – | inactive |
| CG31729 | DRSC02946 | 3.33e7 | 1.93e7 | 1.54e7 | 9.56e6 | inactive |
